From patent US20180303898A1 (SANFORD BURNHAM PREBYS MEDICAL DISCOVERY INSTITUTE, published 2018)
These are yes or no findings as the source states them, for the method shown. Some results given as binding are weak or reduced against the parent protein; the word gives no strength.

T1: recombinant 6x-His-tagged p32 protein (p32/p33/gC1qR/HABP1) (UniProt Q07021 74-282)
T1 construct: not shown: 6x-His tag
T1 sequence (looked up): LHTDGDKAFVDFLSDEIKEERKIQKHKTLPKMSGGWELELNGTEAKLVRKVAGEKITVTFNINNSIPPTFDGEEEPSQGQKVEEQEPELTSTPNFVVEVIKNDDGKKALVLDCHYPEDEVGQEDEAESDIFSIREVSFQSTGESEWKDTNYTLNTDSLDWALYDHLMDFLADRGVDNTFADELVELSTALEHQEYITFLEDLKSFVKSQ


How the values were obtained:
[1] = biological target: T1, recombinant 6x-His-tagged p32 protein …; assay: fluorescence polarization displacement of FAM-TT1 from p32
[2] = biological target: T1, recombinant 6x-His-tagged p32 protein …; assay: 1D 1H NMR, 5 µM p32, TT1 at 70 µM; shift of the peak at around -0.3 ppm and a shoulder peak
[3] = biological target: T1, recombinant 6x-His-tagged p32 protein …; assay: 1D 1H NMR, 5 µM p32

| binding [1] | binding [2] | binding [3] | Binder |
| --- | --- | --- | --- |
| binds |  |  | CGNKRTRGC (cyclic 9-amino acid peptide) [LyP-1 peptide (…), unlabeled] |
| binds | binds | binds | CKRGARSTC (9-amino acid cyclic peptide) [TT1 peptide (…), unlabeled] |
